Test results as given in doi:10.1101/2022.11.15.516593.

Chains of the proteins cited; added tags and fusions are not shown. Lines headed by an entry give the natural chain unless they say otherwise; changes in a name come on top.
UniProt Q9M9N3: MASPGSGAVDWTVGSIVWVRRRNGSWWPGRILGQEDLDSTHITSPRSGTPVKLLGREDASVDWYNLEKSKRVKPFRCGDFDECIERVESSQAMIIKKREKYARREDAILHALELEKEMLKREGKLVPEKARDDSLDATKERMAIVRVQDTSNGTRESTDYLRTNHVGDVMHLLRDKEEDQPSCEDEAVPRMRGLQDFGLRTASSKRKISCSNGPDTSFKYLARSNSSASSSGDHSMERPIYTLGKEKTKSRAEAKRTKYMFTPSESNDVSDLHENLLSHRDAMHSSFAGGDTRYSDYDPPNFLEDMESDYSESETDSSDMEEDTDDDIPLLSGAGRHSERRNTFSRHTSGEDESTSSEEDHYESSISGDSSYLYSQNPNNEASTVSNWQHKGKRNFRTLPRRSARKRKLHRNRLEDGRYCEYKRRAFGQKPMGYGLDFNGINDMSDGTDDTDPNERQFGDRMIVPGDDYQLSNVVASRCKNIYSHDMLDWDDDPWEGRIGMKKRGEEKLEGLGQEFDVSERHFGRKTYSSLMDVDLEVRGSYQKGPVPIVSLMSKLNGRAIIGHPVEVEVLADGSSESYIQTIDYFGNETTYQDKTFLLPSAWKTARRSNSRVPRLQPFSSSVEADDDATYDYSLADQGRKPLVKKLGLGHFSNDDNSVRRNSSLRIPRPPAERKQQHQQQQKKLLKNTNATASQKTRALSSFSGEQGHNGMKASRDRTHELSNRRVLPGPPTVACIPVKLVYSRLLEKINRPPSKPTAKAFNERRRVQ

Columns and labels:
[1] = target: PWWP-DOMAIN INTERACTOR OF POLYCOMBS1 (PWO1), fluorescent-protein fusion used for FRET-APB (Arabidopsis thaliana) (UniProt Q9M9N3); experiment: FRET or BRET
[2] = target: PWWP-DOMAIN INTERACTOR OF POLYCOMBS1 (PWO1), yeast two-hybrid fusion (Arabidopsis thaliana); experiment: two-hybrid

binding [1]	binding [2]	Binder
binds	–	UBIQUITIN SPECIFIC PROTEASE 5 (UBP5), fluorescent-protein fusion used for FRET-APB (enzyme, UniProt O22207 1-924) MAEVSMGSSSSSTDLSPEEERVFIRDIAIAAEANSKEGDTFYLITQRWWQEWIEYVNQDQPCNTNDGSSLSEHCDSPGSSTLKKPSRIDNSDLIYDSSLEDPSNTSEIIETLQEGRDYVLLPQEVWNQLRSWYGGGPTLARRVISSGLSQTELAVEVYPLRLQLLLMPKSDHSAIRISKKETIRELHRRACEIFDLDSEHVRIWDYYGHQKYSLMNDLDKTLDDANLQMDQDILVEVLDINGTLSSAHIQSAQENGLVDGDSTSILIEPSKSSLAAAGGFSSSRNAFRTGSVEVSQSFDNTYSSTGVTTRGSTAGLTGLLNLGNTCFMNSAIQCLVHTPEFASYFQEDYHQEINWQNPLGMVGELALAFGDLLRKLWAPGRTPIAPRPFKAKLARFAPQFSGYNQHDSQELLAFLLDGLHEDLNRVKHKPYINSRDADGRPDEEVADEFWKNHIARNDSIIVDVCQGQYKSTLVCPICNKVSVTFDPFMYLSLPLQFNTTRAITVTVFSCDKTALPSTITVNVSKQGRCRDLIQALTNACSLKQSEELKLAEIRNNFIHRLFEDPLIPLSSIKDDDHLAAYKLSKSSENTTLLRLVLRRRDQKAGERESTVQLKPCGTPLLSSASCGDALTKGKIHCLVQNMLSPFRREESVGKKGNSDSSIPERRSARFNNTEEEDKVGGLKKAKKSNSSDLGASKLSLQLIDEDNKTINLPDNEAEAMKLPSSATVTIYLDWTPELSGMYDITCLESLPEVLKYGPTTKKARSEPLSLYACLEAFLREEPLVPDEMWFCPQCNERRQASKKLDLWRLPEVLVIHLKRFSYSRSMKHKLETFVNFPIHDLDLTKYVANKNLSQPQLYELYALTNHYGGMGSGHYTAHIKLLDDSRWYNFDDSHISHINEDDVKSGAAYVLFYRRKSDAGGKMT
–	binds	UBIQUITIN SPECIFIC PROTEASE 5 (UBP5), yeast two-hybrid fusion (enzyme, UniProt O22207 1-924) MAEVSMGSSSSSTDLSPEEERVFIRDIAIAAEANSKEGDTFYLITQRWWQEWIEYVNQDQPCNTNDGSSLSEHCDSPGSSTLKKPSRIDNSDLIYDSSLEDPSNTSEIIETLQEGRDYVLLPQEVWNQLRSWYGGGPTLARRVISSGLSQTELAVEVYPLRLQLLLMPKSDHSAIRISKKETIRELHRRACEIFDLDSEHVRIWDYYGHQKYSLMNDLDKTLDDANLQMDQDILVEVLDINGTLSSAHIQSAQENGLVDGDSTSILIEPSKSSLAAAGGFSSSRNAFRTGSVEVSQSFDNTYSSTGVTTRGSTAGLTGLLNLGNTCFMNSAIQCLVHTPEFASYFQEDYHQEINWQNPLGMVGELALAFGDLLRKLWAPGRTPIAPRPFKAKLARFAPQFSGYNQHDSQELLAFLLDGLHEDLNRVKHKPYINSRDADGRPDEEVADEFWKNHIARNDSIIVDVCQGQYKSTLVCPICNKVSVTFDPFMYLSLPLQFNTTRAITVTVFSCDKTALPSTITVNVSKQGRCRDLIQALTNACSLKQSEELKLAEIRNNFIHRLFEDPLIPLSSIKDDDHLAAYKLSKSSENTTLLRLVLRRRDQKAGERESTVQLKPCGTPLLSSASCGDALTKGKIHCLVQNMLSPFRREESVGKKGNSDSSIPERRSARFNNTEEEDKVGGLKKAKKSNSSDLGASKLSLQLIDEDNKTINLPDNEAEAMKLPSSATVTIYLDWTPELSGMYDITCLESLPEVLKYGPTTKKARSEPLSLYACLEAFLREEPLVPDEMWFCPQCNERRQASKKLDLWRLPEVLVIHLKRFSYSRSMKHKLETFVNFPIHDLDLTKYVANKNLSQPQLYELYALTNHYGGMGSGHYTAHIKLLDDSRWYNFDDSHISHINEDDVKSGAAYVLFYRRKSDAGGKMT

No constants are given. Whether binding was seen depends on the method and setting. Binding calls can cover weak binding; strength is not graded here. Sequences can lack the tags named with a protein. For some assays here: In cells and extracts the contact can be indirect.
